The target in this experiment is T1, BAD (human (endogenous in B-ALL cells)) (UniProt Q92934).
T1 sequence: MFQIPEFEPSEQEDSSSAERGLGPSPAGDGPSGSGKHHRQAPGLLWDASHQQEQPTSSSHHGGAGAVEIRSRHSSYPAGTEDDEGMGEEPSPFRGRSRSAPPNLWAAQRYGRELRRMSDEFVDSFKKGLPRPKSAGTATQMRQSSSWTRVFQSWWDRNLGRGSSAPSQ
Kind of experiment: co-IP; endogenous BAD precipitated with anti-BAD (C-7) from CHAPS lysates of B-ALL cells at 4 °C, protein G-agarose, blots for BCL-2, BCL-XL, MCL-1; cells with or without trametinib.

The chains behind the UniProt entries cited, without tags or fusion partners.
UniProt Q07820: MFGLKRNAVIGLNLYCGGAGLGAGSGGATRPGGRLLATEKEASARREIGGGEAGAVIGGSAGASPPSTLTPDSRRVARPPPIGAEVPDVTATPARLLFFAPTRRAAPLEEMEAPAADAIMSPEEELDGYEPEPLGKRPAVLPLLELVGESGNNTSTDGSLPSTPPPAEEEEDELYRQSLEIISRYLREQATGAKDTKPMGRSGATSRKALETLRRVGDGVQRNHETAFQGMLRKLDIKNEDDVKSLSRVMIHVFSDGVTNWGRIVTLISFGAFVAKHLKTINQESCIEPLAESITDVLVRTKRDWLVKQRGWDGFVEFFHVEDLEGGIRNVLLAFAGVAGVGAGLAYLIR

Results are given in words; binding and its absence hold for the method and conditions named. Binding seen in cells or lysates may run through a third protein.

Consider MCL-1 (from UniProt Q07820 1-350), for which the binding result is listed as “no binding”.

The record behind these values is paper PMC4855656.
